# Measured values from PubChem BioAssay AID2685 (National Center for Advancing Translational Sciences (NCATS), 2010).
# Values joined by “and” are separate entries in the source; they are usually repeats but may differ in a detail not shown here. Equal values may be shown once. The list shows a part of the results. Further columns of the screen follow, without active or inactive calls. The list favours compounds with an active or inconclusive main result. Potencies come from curve fits of mixed quality, noted in brackets.
# Test: qHTS Assay for Lipid Storage Modulators in Drosophila S3 Cells;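 as to cell number change: cells counted by Cell Tracker Red CMTPX staining in the red channel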
# Details: BODIPY lipid droplet fluorescence, 18-24 h; for cell number change: measured here: cell count max response, cells fed with added oleic acid
# How it was run: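 Drosophila S3 cells loaded with oleic acid (400 uM, as added) and compounds at several concentrations; lipid droplets imaged by 488-nm laser-scanning cytometry, 500–530 nm intensity and object ratio to cell channel. Percent activity normalized to 20 uM Triacsin C.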
# [1] = measured here: cell number channel AC50, cells fed with added oleic acid
# [2] = measured here: lipid fluorescence (Fed channel) AC50, cells fed with added oleic acid
SMILES,cell number change,AC50 [1],AC50 [2]
Oc1ccc(Br)cc1-c1cc(-c2ccc(Cl)cc2)n[nH]1,-91.5%,"20.6 µM [falling, partial curve]","29.1 µM [falling, partial curve]"
CCC(=O)NCCc1nc2cc(NC(=O)Nc3ccccc3)ccc2n1C,,,"0.58 µM [rising, single point]"
Cc1ccc(SCCNC(=S)Nc2cc(C)ccc2C)cc1,58.1%,"29.1 µM [rising, single point]",
O=C(Nc1c(F)cc(F)cc1Br)c1ccco1,-74.4%,"16.4 µM [falling, partial curve]","16.4 µM [falling, partial curve]"
Cc1cccc(NS(=O)(=O)c2ccc(C3CCCCC3)cc2)n1,-24%,"0.651 µM [falling, full curve, poor fit]","2.59 µM [falling, partial curve]"
O=S(=O)(Nc1ccc(S(=O)(=O)N2CCOCC2)cc1)c1ccc(Br)cc1,-32.4%,"14.6 µM [falling, partial curve, poor fit]","0.206 µM [rising, single point]"
CCOC(=O)Cc1cnc(N)s1,,"6.51 µM [rising, single point]",
O=C1NC(=S)N/C1=C\c1cccc([N+](=O)[O-])c1,-63%,"3.26 µM [falling, full curve]","5.8 µM [falling, single point]"
Cc1ccc(NC(=O)C2CC(=O)N(Cc3ccco3)C2)cc1 (stereo not drawn),0.387%,,
COc1cc(S(=O)(=O)N(Cc2ccc(C)cc2)C2CCCCC2)ccc1-n1cnnn1,-29.2%,,
COC(=O)c1cc(NC(=O)c2ccoc2C)cc(C(=O)OC)c1,-6.54%,,"0.082 µM [rising, full curve, poor fit]"
O=C(CSc1ccccn1)N1CCN(c2cccc(Cl)c2)CC1,,,"4.11 µM [rising, single point]"
COc1ccc(NC(=O)CCC(=O)OCc2ccc(C(=O)Oc3ccc(Cl)cc3)cc2)cc1,12.1%,,
COc1cccc2cc(-c3csc(CCn4nc(C)cc4C)n3)c(=O)oc12,-20.6%,,"1.03 µM [rising, single point]"
Cc1nn(-c2ccccc2)c(N)c1N=Nc1ccccc1,11.8%,,
CCOC(=O)c1ccc(NC(=O)Cc2cccs2)cc1,-0.275%,,
Cc1cccnc1NC(=O)Nc1ccc(F)cc1,35.7%,"20.6 µM [rising, single point]","25.9 µM [rising, single point]"
CN(Cc1ccccc1)S(=O)(=O)c1ccc(OCC(=O)N2CCC(C(N)=O)CC2)cc1,-17.1%,,
O=C(N[C@@H](Cc1ccccc1)C(=O)OCc1ccccc1)c1nc[nH]c1C(=O)N[C@@H](Cc1ccccc1)C(=O)OCc1ccccc1,,,"3.66 µM [falling, full curve]"
CCCCOC(=O)c1ccc(NC(=O)c2c(OC)cccc2OC)cc1,18%,,

SMILES,cell number change,AC50 [1],AC50 [2]
O=C(Nc1ccc(Oc2ccc(NC(=O)Nc3ccc([N+](=O)[O-])cc3)cc2)cc1)Nc1ccc([N+](=O)[O-])cc1,22.1%,"4.61 µM [rising, full curve, poor fit]","2.59 µM [falling, full curve]"
COC(=O)C1=[N+]([O-])OC(C(=O)OC)C1c1c[nH]c2ccccc12 (stereo not drawn),-10.1%,"0.411 µM [rising, full curve, poor fit]","6.51 µM [rising, partial curve, poor fit]"
Oc1c(C=C2N=c3ccccc3=N2)sc(=S)n1-c1ccc(F)cc1,-25.6% and -32.5%,"29.1 µM [falling, single point]","29.1 µM [falling, single point] and 14.6 µM [falling, partial curve, poor fit]"
O=C(CS(=O)(=O)c1ccccc1)c1cc2ccccc2oc1=O,-1.22%,,"0.92 µM [falling, full curve, poor fit]"
CC(C)(C)c1[nH]nc2c1C(c1ccncc1)C(C#N)=C(N)O2 (stereo not drawn),-1.1%,,
Cn1ncc(Cl)c1C(=O)NCC1CCCO1 (stereo not drawn),14.5%,,"2.91 µM [rising, full curve, poor fit]"
CC(C)Cn1c(-c2ccccc2F)n[nH]c1=S,-3.67%,,"6.51 µM [falling, single point]"
COc1ccc(C(=O)NCC(c2ccco2)N2CCc3ccccc32)c(OC)c1 (stereo not drawn),,"2.91 µM [rising, partial curve]","2.59 µM [rising, partial curve]"
COc1ccccc1CNC(=O)CCCNC(=O)c1ccc(Cl)cc1,,,"29.1 µM [rising, single point]"
O=C(Nc1ccccc1N1CCOCC1)c1ccc(Cl)nc1,16.3%,"0.00461 µM [falling, full curve, poor fit]","0.00517 µM [falling, full curve, poor fit]"
O=C(C1CCN(S(=O)(=O)c2cnc[nH]2)CC1)N1CCN(Cc2ccc3c(c2)OCO3)CC1,,,"1.64 µM [falling, full curve]"
O=C(CCc1nc2ccccc2s1)Nc1cccnc1,14.1%,"2.06 µM [falling, partial curve]",
CCCC1=C(C(=O)OCC)C(c2ccc(O)cc2)n2ncnc2N1 (stereo not drawn),-9.55%,,"2.06 µM [rising, full curve, poor fit]"
O=C1OC(c2cccs2)=N/C1=C/c1ccc(-c2cccc(C(=O)O)c2)o1,-79.4%,"29.1 µM [falling, single point]",
O=C1CN(C(=S)Nc2ccccc2Cl)CCN1,-0.611%,,
O=C(Nc1ccc2oc(=O)ccc2c1)c1ccc(-c2ccccc2[N+](=O)[O-])o1,-0.534%,,"1.84 µM [rising, partial curve]"
COc1ccc2[nH]c(C)c(CCN3C(=O)C4C5C=CC(C5)C4C3=O)c2c1 (stereo not drawn),20.7%,,"0.231 µM [rising, full curve, poor fit]"
COc1ccc(N2CCN(C(=O)c3ccc(CNS(=O)(=O)c4ccc(C)cc4)cc3)CC2)cc1,-36.9%,"16.4 µM [falling, single point]","18.4 µM [falling, partial curve]"
COc1ccccc1N(CC(O)CN1CCC(C)CC1)S(=O)(=O)c1ccccc1 (stereo not drawn),-21.8%,,
CCC(C)NC(=S)NNC(=O)c1ccncc1 (stereo not drawn),1.28%,"0.291 µM [rising, partial curve, poor fit]",

# Taken from above:
# Cn1ncc(Cl)c1C(=O)NCC1CCCO1 (stereo not drawn) | AC50 [2]: 2.91 µM [rising, full curve, poor fit]
# COc1cc(S(=O)(=O)N(Cc2ccc(C)cc2)C2CCCCC2)ccc1-n1cnnn1 | cell number change: -29.2%
# CCCCOC(=O)c1ccc(NC(=O)c2c(OC)cccc2OC)cc1 | cell number change: 18%

# (next part)

SMILES,cell number change,AC50 [1],AC50 [2]
CN1CCN(C(=O)c2ccccc2[N+](=O)[O-])CC1,-2.55%,,
CC1=C(C(=O)Nc2ccccn2)C(c2cn(C)nc2C)C2=C(CCCC2=O)N1 (stereo not drawn),,"0.651 µM [rising, single point]","2.91 µM [falling, single point]"
Cc1ccc(S(=O)(=O)N(C)Cc2nc(-c3ccc(Br)cc3)no2)cc1,72.7%,"29.1 µM [rising, single point]",
Cc1nn(CC(=O)N2CCN(S(=O)(=O)c3ccccc3)CC2)c(C)c1[N+](=O)[O-],18%,,"1.64 µM [falling, single point]"
O=C(c1cc2c(s1)CCCC2)N1CCN(Cc2ccc3c(c2)OCO3)CC1,-17.8%,,"6.51 µM [rising, single point]"
Cc1ccc(N=Nc2c(N)[nH]n3c(=O)cc(C)nc23)cc1,-38.1%,"29.1 µM [falling, single point]","3.66 µM [rising, single point]"
COc1cccc(NC(=O)CSc2nnc(-c3cccc(OC(C)C)c3)n2N)c1,-0.14%,,"29.1 µM [rising, single point]"
Cc1cc(=O)n2nc(N3CCCC(C(=O)NC(C)c4ccccc4)C3)sc2n1 (stereo not drawn),40%,"29.1 µM [rising, single point]","20.6 µM [rising, single point]"
CCn1c(=O)cc(OCC(=O)N(C)C2CCCCC2)c2ccccc21,-35.7%,"29.1 µM [falling, single point]","4.11 µM [rising, full curve, poor fit]"
CC(C)(C)c1cc2cccnc2n1Cc1cccc(Cl)c1,,"6.51 µM [falling, single point]",
Cc1cc(C)cc(N(CCC#N)C(=O)COC(=O)c2ccc(OCc3c(C)noc3C)cc2)c1,,"6.51 µM [falling, single point]",
O=C1c2nc3cc(-c4ccco4)[nH]n3c(=O)c2CN1C1CCCCC1,-28.7%,,"23.1 µM [falling, single point]"
O=C(O)c1cccc(S(=O)(=O)N2CCOCC2)c1,-14.6%,,"29.1 µM [falling, single point]"
Cc1ccn2c(C(=O)c3ccc(Cl)cc3)cnc2c1,57.1%,"16.4 µM [rising, single point]",
CCc1ccc(N=C2NC(=O)/C(=C/c3ccc(OCC(=O)O)c(OC)c3)S2)cc1,-0.702%,,"29.1 µM [rising, single point]"
CCOc1cc(C(=O)N(C)CC(=O)Nc2cccc3ccccc23)ccc1OC,-4.02%,,"20.6 µM [falling, single point]"
C=CCn1c(NCCc2ccccc2)nc2c1c(=O)n(C)c(=O)n2C,-74.7%,,"29.1 µM [falling, single point]"
COc1ccc(OC)c(-n2c(-c3ccn[nH]3)n[nH]c2=S)c1,16.5%,,
c1ccc2c(c1)CCN(c1nc3ccccc3n3cnnc13)C2,76.5%,"1.84 µM [rising, full curve]","2.31 µM [rising, full curve]"

# Part of the list above, reformatted:
SMILES	cell number change	AC50 [1]	AC50 [2]
CCc1ccc(N=C2NC(=O)/C(=C/c3ccc(OCC(=O)O)c(OC)c3)S2)cc1	-0.702%		29.1 µM [rising, single point]
CCOc1cc(C(=O)N(C)CC(=O)Nc2cccc3ccccc23)ccc1OC	-4.02%		20.6 µM [falling, single point]
